Data: PMC4605302
No constants are given. Whether binding was seen depends on the method and setting. Binding seen in cells or lysates may run through a third protein. A yes stands for co-enrichment or nearness to the bait. Other partners may have been found.

B1: Ctf8 (protein, UniProt P38877 1-133)
chain: MPSVDIDASQWQKLTQSREKQTTVITPLGMMMLEIQGELELPKDFASLARRDSPNEGRFSEQDGETLIRFGSLQIDGERATLFVGKKQRLLGKVTKLDVPMGIMHFNSKDNKVELVDVMKYKVIFKDRPLPIM
B2: Dcc1 (protein, UniProt P25559 1-380)
chain: MSINLHSAPEYDPSYKLIQLTPELLDIIQDPVQNHQLRFKSLDKDKSEVVLCSHDKTWVLKQRKHSNTVLLMREFVPEQPITFDETLLFGLSKPYMDVVGFAKTESEFETRETHGELNLNSVPIYNGELDFSDKIMKRSSTKVIGTLEELLENSPCSALEGISKWHKIGGSVKDGVLCILSQDFLFKALHVLLMSAMAESLDLQHLNVEDTHHAVGKDIEDEFNPYTREIIETVLNKFAVQEQEAENNTWRLRIPFIAQWYGIQALRKYVSGISMPIDEFLIKWKSLFPPFFPCDIDIDMLRGYHFKPTDKTVQYIAKSTLPMDPKERFKVLFRLQSQWDLEDIKPLIEELNSRGMKIDSFIMKYARRKRLGKKTVVTSR

Target: T1, Dpb2-TAP (S. cerevisiae) (UniProt P24482)
T1 sequence: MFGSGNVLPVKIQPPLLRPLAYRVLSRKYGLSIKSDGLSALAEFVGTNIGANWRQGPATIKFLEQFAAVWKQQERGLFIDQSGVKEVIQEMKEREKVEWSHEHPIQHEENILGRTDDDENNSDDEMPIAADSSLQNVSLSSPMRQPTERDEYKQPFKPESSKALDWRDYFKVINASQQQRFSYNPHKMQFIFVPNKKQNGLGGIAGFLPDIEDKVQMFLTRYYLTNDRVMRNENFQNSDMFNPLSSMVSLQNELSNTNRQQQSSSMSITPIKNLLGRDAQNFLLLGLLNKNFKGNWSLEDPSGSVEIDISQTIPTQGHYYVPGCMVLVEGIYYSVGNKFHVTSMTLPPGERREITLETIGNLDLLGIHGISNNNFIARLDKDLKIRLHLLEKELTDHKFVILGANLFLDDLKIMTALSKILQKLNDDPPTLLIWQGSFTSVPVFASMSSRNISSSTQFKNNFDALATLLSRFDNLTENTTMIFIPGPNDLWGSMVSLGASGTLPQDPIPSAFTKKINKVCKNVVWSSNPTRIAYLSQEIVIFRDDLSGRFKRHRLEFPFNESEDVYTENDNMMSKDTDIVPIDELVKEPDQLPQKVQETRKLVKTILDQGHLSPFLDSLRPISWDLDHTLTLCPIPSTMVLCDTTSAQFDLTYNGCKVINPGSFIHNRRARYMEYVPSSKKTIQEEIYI
Assay: affinity purification with mass spectrometry; TAP-tagged proteins purified from 4 l yeast cultures; gel bands digested with trypsin, nano-LC tandem mass spectrometry

| Binder | binding |
| --- | --- |
| B1 | binds |
| B2 | binds |
